{"source": "PubChem BioAssay AID504467", "about": "(National Center for Advancing Translational Sciences (NCATS), 2011)", "note": "Hit rate of the full screen: of about 330,000 compounds, about 7,700 (2.3%) were called active. The shares of active, inactive and inconclusive entries below differ from those in the screen. The call rests on the fitted dose curve; in most records, active means well fitted inhibition curve with a large enough effect; inconclusive means small, poorly fitted or top-dose-only effect, or effect the other way; inactive means flat fitted curve, though single readings scatter. A potency beside an inconclusive call is a rough fit, not a confirmed value. On the % scale 0 is the no-effect control and ±100 the full control effect; potency means the concentration at half of the fitted maximal effect.", "data": [{"experiment": "qHTS screen for small molecules that inhibit ELG1-dependent DNA repair in human embryonic kidney (HEK293T) cells expressing luciferase-tagged ELG1; further: nearly all actives have a fitted effect of over 55% in size", "conditions": "HEK293T ELG1-luciferase reporter, luminescence, 16 h, DNA damage induced by 5-fluorouridine; activity change, negative = inhibition: at 46.1 µM (top of the series)", "in_short": "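Luminescence from the luciferase reporter, measured 30 min after ONE-Glo reagent at room temperature, was the read-out. Beforehand, 2,000 cells per well were exposed for 16 hr at 37 °C to 5-fluorouridine together with compound or vehicle.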", "values": [{"smiles": "Cc1nn(-c2cccc(C(F)(F)F)c2)c(Cl)c1/C=N/n1cnnc1", "activity change, negative = inhibition": "inactive: -7.79%"}, {"smiles": "Nc1c(N(CCC2=CCCCC2)C(=O)CCCOc2ccccc2)c(=O)[nH]c(=O)n1Cc1ccccc1", "activity change, negative = inhibition": "inactive: 0.643%"}, {"smiles": "CCCCn1c(SCC(=O)N2c3ccccc3CCc3ccccc32)nc2c1c(=O)n(C)c(=O)n2C", "Potency": "active: 20.6 µM"}, {"smiles": "COc1ccc2c(n1)Sc1nc3ccccc3nc1N2", "Potency": "inconclusive: 3.66 µM [activator, full curve]"}, {"smiles": "CCOC(=O)c1c(C)[nH]c(C)c1C(=O)COC(=O)CCc1ccccc1", "Potency": "inconclusive: 4.11 µM [activator, single point]"}, {"smiles": "O=c1nc(SCc2cccc(C(F)(F)F)c2)nc2ccccn12", "activity change, negative = inhibition": "inactive: 15.7%"}, {"smiles": "Cc1ccc(C)c(S(=O)(=O)N2CCN(Cc3cc4c(cc3O)OCO4)CC2)c1", "activity change, negative = inhibition": "inactive: -2.66%"}, {"smiles": "CCOc1ccccc1NC(=S)N1CCN(c2cccc(OC)c2)CC1", "Potency": "inconclusive: 8.2 µM [inhibitor, partial curve, poor fit]"}, {"smiles": "Cc1cccc2cc(/C=N/NC(=O)CN3CCOCC3)c(Cl)nc12", "activity change, negative = inhibition": "inactive: 14.9%"}, {"smiles": "Cc1ccc(C(=O)Nc2nc(=O)[nH]s2)cc1", "Potency": "inactive"}, {"smiles": "O=C(Cc1csc(Nc2nc(=S)[nH]c3ccccc23)n1)NCc1ccc(Cl)cc1", "activity change, negative = inhibition": "inactive: 10%"}, {"smiles": "CC(NCc1ccc(F)cc1)C(=O)NC1CCCCC1", "note": "(stereo unspecified)", "Potency": "inconclusive: 10.3 µM [activator, partial curve, poor fit]"}, {"smiles": "Cc1ccnc(SCc2cc(=O)c(OC(=O)c3ccc(Cl)c([N+](=O)[O-])c3)co2)n1", "Potency": "active: 20.6 µM"}, {"smiles": "COc1cc(/C=C/c2cccc[n+]2C)ccc1OCC(=O)Nc1ccccc1", "Potency": "inconclusive: 1.03 µM [inhibitor, full curve, poor fit]"}, {"smiles": "CCCS(=O)(=O)N1CCC(C(=O)NCc2ccccc2Cl)CC1", "Potency": "inconclusive: 0.517 µM [activator, full curve, poor fit]"}, {"smiles": "Cc1ccc(CC2S/C(=N/c3ccccn3)NC2=O)cc1", "note": "(stereo unspecified)", "Potency": "inconclusive: 23.1 µM [activator, single point]"}, {"smiles": "O=C(NCCc1cccc(F)c1)C1CCC(=O)N(CCCc2ccccc2)C1", "note": "(stereo unspecified)", "activity change, negative = inhibition": "inactive: -0.379%"}, {"smiles": "CC(=O)NC(NC(C)=O)c1ccc(N(C)C)cc1", "Potency": "inconclusive: 0.146 µM [activator, single point]"}, {"smiles": "Cc1ccccc1OCCN(C#N)c1nc(N(C)C)nc(N(C)C)n1", "Potency": "inconclusive: 16.4 µM [inhibitor, single point]"}, {"smiles": "Cc1cc(NC(=O)CSc2nnc(-c3ccccc3)c(-c3ccccc3)n2)no1", "Potency": "inconclusive: 8.2 µM [inhibitor, partial curve, poor fit]"}, {"smiles": "C#CCOCCOCCOCCNc1nc(N2CCN(C(=O)CCCCCCCCCCNC(=O)[C@@H](CCSC)n3cc(CCO)nn3)CC2)nc(N2CCN(C(=O)CCCCCCCCCCNC(=O)[C@H](CCCN=C(N)N)n3cc(C[C@@H](C)CC)nn3)CC2)n1", "Potency": "inconclusive: 35.5 µM [inhibitor, single point]"}]}]}
